# Measurements as given in PubChem BioAssay AID1671190 (National Center for Advancing Translational Sciences (NCATS), 2021).
# Sequences of proteins named here, by UniProt entry; tags and fusion partners are left off. A change or cut given only in a name is not applied to a line headed by its entry.
# UniProt P18054: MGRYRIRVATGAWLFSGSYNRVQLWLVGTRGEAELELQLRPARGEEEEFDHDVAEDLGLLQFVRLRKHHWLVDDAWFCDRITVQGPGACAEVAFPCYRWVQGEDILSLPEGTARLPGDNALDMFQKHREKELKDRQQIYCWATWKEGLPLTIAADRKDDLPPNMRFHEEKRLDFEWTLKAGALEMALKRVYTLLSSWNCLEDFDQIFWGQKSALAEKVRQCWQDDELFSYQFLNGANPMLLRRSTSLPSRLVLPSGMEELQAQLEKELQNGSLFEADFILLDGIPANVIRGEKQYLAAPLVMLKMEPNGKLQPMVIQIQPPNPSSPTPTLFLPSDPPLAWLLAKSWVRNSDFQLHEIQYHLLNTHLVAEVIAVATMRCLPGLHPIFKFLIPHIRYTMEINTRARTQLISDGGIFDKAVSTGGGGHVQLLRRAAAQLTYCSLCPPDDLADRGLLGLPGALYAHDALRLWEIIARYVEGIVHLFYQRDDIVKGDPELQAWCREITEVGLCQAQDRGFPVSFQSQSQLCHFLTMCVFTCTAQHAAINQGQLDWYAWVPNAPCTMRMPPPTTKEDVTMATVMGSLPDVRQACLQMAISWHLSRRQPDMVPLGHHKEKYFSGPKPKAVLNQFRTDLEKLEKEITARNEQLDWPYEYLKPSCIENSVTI
# Several values for one entry are separate records, joined by “and”; a condition that tells them apart may be missing. Equal entries are not always repeated. Out of some 580,000 compounds screened, about 6,100 (1.1%) were called active. This list was built around the results that the source calls inconclusive (neither active nor inactive); the mix of calls is not that of the screen. Calls come from the whole dose curve; as a rule, active = well fitted inhibition curve with a large enough effect; inconclusive = small, poorly fitted or top-dose-only effect, or another doubt; inactive = no such curve, though single readings can be large or run the other way. Potencies beside an inconclusive call are fits to weak or partial responses and may not hold up.
# Molecular target: Polyunsaturated fatty acid lipoxygenase ALOX12 (Homo sapiens) (UniProt P18054)
# Assay: Primary qHTS assay for inhibitors of human arachidonate 12S-lipoxygenase (ALOX12): Round 2
# Settings: purified 12hLO, xylenol orange hydroperoxide absorbance; activity change, negative = inhibition: at 108 µM (top of the series) unless noted
# Method in brief: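 Hydroperoxide product was detected by ferrous iron/xylenol orange as the 573 to 405 nm absorbance ratio. Arachidonic acid at 40 uM (final) was turned over for 30 min at room temperature by 150 nM human 12hLO, pH 7.0 Hepes buffer, after 15 min compound preincubation.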
# % is set by controls: 0 for no effect and ±100 for the full control effect; potency is the fitted concentration of half-maximal effect.
SMILES,Potency,"activity change, negative = inhibition"
COc1ccc(OC)c(NC(=O)CSc2ncccn2)c1,"inconclusive: 56.2 µM [inhibitor, partial curve, poor fit]",–
COc1ccc(N2CCN(S(=O)(=O)c3ccc4c(c3)NC(=O)CC(=O)N4)CC2)cc1,inactive,–
C=C(C)Cn1c(=O)c2c(nc3n2CCN3c2cccc(Cl)c2C)n(C)c1=O,"inconclusive: 126 µM [inhibitor, single point]",–
CCOC(=O)N1CCN(C(=O)c2ccc(NS(=O)(=O)c3ccc(C)cc3)cc2)CC1,inactive,–
CN(C)C(=O)c1cccc(-c2cnc3c(NC=O)cc(-c4cccc(C(F)(F)F)c4)cn23)c1,inactive,–
Cc1cc2c(cc1S(=O)(=O)N1CCCCC1)OCC(=O)N2,"inconclusive: 2.24 µM [inhibitor, full curve, poor fit]",–
CC(OC(=O)C1COc2ccccc2O1)C(=O)N(C)c1ccccc1 (stereo unspecified),"inconclusive: 31.6 µM [inhibitor, partial curve, poor fit]",–
Cc1ccc(C(=O)c2c(NC(=O)c3cccnc3)sc3c2CCCC3)cc1,"inconclusive: 44.7 µM [inhibitor, partial curve, poor fit]",–
Cc1cc(C2CCCCC2)ccc1O,"inconclusive: 50.1 µM [inhibitor, single point]",–
Cc1ccccc1C(=O)N1CCC(CCC(=O)NCCc2c[nH]c3ccccc23)CC1,inactive,–
CN(c1ccc(C(=O)N2CCOCC2)cc1)S(=O)(=O)c1ccc(Cl)cc1,inactive,–
CCOC(=O)c1cc(C#N)c(C)nc1N(CC)CC,inactive,–
CCc1ccc(NC(=O)c2ccc3c(O)c(S(=O)(=O)c4ccc(Cl)cc4)c(=O)[nH]c3c2)cc1,"inconclusive: 126 µM [inhibitor, single point]",–
CC(=O)Nc1ccc(CN2C(=O)OC3(CCN(C(=O)COc4ccccc4)CC3)C2(C)c2ccccc2)cc1 (stereo unspecified),inactive,–
O=C(C[C@@H]1CCNC[C@@H]1Cc1cc(-c2ccccc2)on1)N1CCc2ccccc2C1,"inconclusive: 25.1 µM [inhibitor, full curve]",–
Cc1noc(C)c1-c1ccc2ncnc(N3CCOCC3)c2c1,"inconclusive: 50.1 µM [inhibitor, partial curve, poor fit]",–
O=[N+]([O-])c1ccc(Cl)c2c1C1C=CCC1C(c1ccccn1)N2 (stereo unspecified),"inconclusive: 44.7 µM [inhibitor, partial curve]",–
O=C(c1cccc([N+](=O)[O-])c1)N1CCN(Cc2ccc3c(c2)OCO3)CC1,inactive,–
O=C(Cc1n[nH]c(=O)c2ccccc12)Nc1cc(C(F)(F)F)ccc1-n1cncn1,"inconclusive: 39.8 µM [inhibitor, full curve, poor fit]",–
COc1ccc2ccc(OCc3nc(C(=O)N4CCCC(C(N)=O)C4)co3)cc2c1 (stereo unspecified),inactive,–
O=C(c1cc2ccccc2[nH]1)N1CCc2ccccc2C1,inactive,–

SMILES,Potency,"activity change, negative = inhibition"
Cc1ccc(S(=O)(=O)N(CC(O)Cn2c3ccccc3c3ccccc32)c2cccc(C(N)=O)c2)cc1 (stereo unspecified),"inconclusive: 50.1 µM [inhibitor, partial curve, poor fit]",–
O=C(NCCc1ccc(Cl)cc1)c1nc(-c2ccc(Cl)nc2)c2ccccn12,–,inactive: 1.21% [at 6.33 µM]
Cc1cc(C)c2nc(SC(C)C(=O)NCC(=O)Nc3ccc(F)c(F)c3F)cc(C)c2c1 (stereo unspecified),"inconclusive: 44.7 µM [inhibitor, partial curve, poor fit]",–
CN=c1scc(C)n1/N=C/C1CCCCC1,"inconclusive: 39.8 µM [inhibitor, partial curve, poor fit]",–
O=C(NC1CC1)c1ccc2nnc(-c3ccc(C(F)(F)F)cc3)n2c1,"inconclusive: 70.8 µM [inhibitor, partial curve, poor fit]",–
O=c1c2ccccc2ncn1Cc1ccccc1,"inconclusive: 112 µM [inhibitor, single point]",–
Cc1cccc(SCc2noc(C(=O)NC(C)C)c2C(=O)O)c1,"inconclusive: 44.7 µM [inhibitor, partial curve]",–
CCc1ccc(-c2nc(CSCC(=O)N3CCN(c4ncccn4)CC3)c(C)o2)cc1,inactive,–
Cc1ccccc1CN1CCN(S(=O)(=O)c2ccc(F)cc2)CC1,"inconclusive: 3.16 µM [inhibitor, full curve, poor fit]",–
COCCNC(=O)c1cnn2c1NC(c1ccco1)CC2C(F)(F)F (stereo unspecified),"inconclusive: 100 µM [inhibitor, single point]",–
O=C(CN1C(=O)NC(c2ccc(Cl)cc2)C2=C1COC2=O)NCc1ccccc1Cl (stereo unspecified),"inconclusive: 63.1 µM [inhibitor, single point]",–
CCOC(=O)N1CCN(S(=O)(=O)c2ccc(C(=O)NNc3nc4c(C)cc(C)cc4s3)cc2)CC1,"inconclusive: 39.8 µM [inhibitor, partial curve, poor fit]",–
COc1ccc([N+](=O)[O-])cc1C(=O)C(=O)c1ccccc1,"inconclusive: 89.1 µM [inhibitor, single point]",–
Cc1cccc2nc(-c3ccco3)c(Nc3ccc4c(c3)OCO4)n12,"inconclusive: 44.7 µM [inhibitor, partial curve, poor fit] and inconclusive: 70.8 µM [inhibitor, partial curve, poor fit]",–
Cc1c(Cl)cccc1NC(=O)Cn1cccc1-c1nc(-c2ccc3c(c2)OCO3)no1,"inconclusive: 44.7 µM [inhibitor, partial curve]",–
Cn1nnnc1NCc1ccc(-c2ccccc2)o1,"inconclusive: 17.8 µM [inhibitor, full curve, poor fit]",–
COc1ccc(OCCNC(=O)/C=C/c2ccc([N+](=O)[O-])cc2)cc1,"inconclusive: 126 µM [inhibitor, partial curve, poor fit]",–
Cc1ccnc(NC(=O)c2cccc(S(=O)(=O)N3CCN(c4ccccc4)CC3)c2)c1,inactive,–
O=C(NCc1ccco1)c1cnc2ccccn2c1=O,"inconclusive: 89.1 µM [inhibitor, single point]",–
CCOc1ccc(-c2nc(-c3ccc(OC)cc3)no2)cc1OCC,inactive,–

# Reformatted with tabs: entries from further up.
SMILES	Potency	activity change, negative = inhibition
Cc1ccc(S(=O)(=O)N(CC(O)Cn2c3ccccc3c3ccccc32)c2cccc(C(N)=O)c2)cc1 (stereo unspecified)	inconclusive: 50.1 µM [inhibitor, partial curve, poor fit]	–
O=C(NCCc1ccc(Cl)cc1)c1nc(-c2ccc(Cl)nc2)c2ccccn12	–	inactive: 1.21% [at 6.33 µM]
O=C(NC1CC1)c1ccc2nnc(-c3ccc(C(F)(F)F)cc3)n2c1	inconclusive: 70.8 µM [inhibitor, partial curve, poor fit]	–
Cc1ccccc1CN1CCN(S(=O)(=O)c2ccc(F)cc2)CC1	inconclusive: 3.16 µM [inhibitor, full curve, poor fit]	–
O=C(CN1C(=O)NC(c2ccc(Cl)cc2)C2=C1COC2=O)NCc1ccccc1Cl (stereo unspecified)	inconclusive: 63.1 µM [inhibitor, single point]	–
COc1ccc([N+](=O)[O-])cc1C(=O)C(=O)c1ccccc1	inconclusive: 89.1 µM [inhibitor, single point]	–
Cc1cccc2nc(-c3ccco3)c(Nc3ccc4c(c3)OCO4)n12	inconclusive: 44.7 µM [inhibitor, partial curve, poor fit] and inconclusive: 70.8 µM [inhibitor, partial curve, poor fit]	–
Cc1c(Cl)cccc1NC(=O)Cn1cccc1-c1nc(-c2ccc3c(c2)OCO3)no1	inconclusive: 44.7 µM [inhibitor, partial curve]	–
Cn1nnnc1NCc1ccc(-c2ccccc2)o1	inconclusive: 17.8 µM [inhibitor, full curve, poor fit]	–
COc1ccc(OCCNC(=O)/C=C/c2ccc([N+](=O)[O-])cc2)cc1	inconclusive: 126 µM [inhibitor, partial curve, poor fit]	–
O=C(NCc1ccco1)c1cnc2ccccn2c1=O	inconclusive: 89.1 µM [inhibitor, single point]	–
